Test results taken from PubChem BioAssay AID662 (National Center for Advancing Translational Sciences (NCATS), 2007).
The other results are listed elsewhere or left out. Shown are side measurements of this screen, not its main read-out; they come without a call. Most of these compounds were active or inconclusive in the main read-out, so they are no random draw. The note in brackets gives the kind of curve behind each potency; many fits are weak.

Test: Cell signaling CRE-BLA (Fsk stim)
Conditions: CHO CRE-bla reporter (cAMP response element driving beta-lactamase), forskolin EC10, beta-lactamase ratio; measured here: 460 nm blue channel
Outline: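 CRE-bla CHO cells stimulated with EC10 NKH 477 (water-soluble forskolin) and compound titrations, 3 h at 37C; beta-lactamase read with CCF4 after 2 h at room temperature. Activity from 460/530 nm emission ratio, AC50 values for positive or negative modulation.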

Compound	AC50
N=c1c(C(=O)NCc2ccco2)cc2c(=O)n3ccccc3nc2n1Cc1ccc(Cl)cc1	3.16 µM [rising, full curve]
CCOC(=O)C1=C(Cn2cnc3ccccc32)NC(=O)NC1c1cc(C)ccc1C (configuration not stated)	25.1 µM [falling, single point]
COC(=O)[C@@]1(Cc2ccc(F)cc2)[C@H]2c3cc(C(=O)N4CCCC4)n(CCN4CNCC4=O)c3C[C@H]2CN1C(=O)c1ccccc1	0.501 µM [rising, full curve]
C=CCSc1nc2c(c(=N)n1CC=C)C1CCCC1S2 (configuration not stated)	12.6 µM [rising, single point]
O=C(CC(=O)c1cc(Cl)ccc1O)c1ccccc1	10 µM [falling, partial curve]
Cn1c(SCc2c(Cl)cccc2Cl)nnc1-c1cccs1	15.8 µM [falling, partial curve]
N#Cc1nc(-c2cccc3ccccc23)oc1NCCN1CCOCC1	10 µM [rising, partial curve]
CC(C)(C)n1ncc2c(=O)n(CC(=O)c3ccccc3)cnc21	25.1 µM [rising, single point]
OCCN1CCN(C(c2cccs2)c2ccc3cccnc3c2O)CC1 (configuration not stated)	25.1 µM [falling, single point]
COc1cccc(N2CCN(C3CC(=O)N(c4ccc(Cl)cc4)C3=O)CC2)c1 (configuration not stated)	0.00398 µM [falling, full curve, poor fit]
C=CCSc1nnc2c(n1)[nH]c1c(C)cccc12	10 µM [rising, partial curve]
CCOc1ccc(-c2cc(CCCC(=O)Nc3cc(OC)ccc3OC)no2)cc1	0.398 µM [falling, partial curve]
CCCNC(=O)c1c[nH]c2ccc(S(=O)(=O)N(C)c3ccc(OCC)cc3)cc2c1=O	3.16 µM [falling, single point]
COc1ccc(N2CCN(Cc3nc(N)nc(Nc4ccc(C)c(Cl)c4)n3)CC2)cc1	25.1 µM [falling, single point]
CC(C)c1ccc(O)c(O)c(=O)c1 (tested in a mixture with another compound)	1 µM [falling, partial curve]
CN(Cc1nc2ccccc2n1C)S(=O)(=O)c1ccc(F)cc1	0.631 µM [falling, full curve, poor fit]
Oc1ccc(Cl)cc1Cc1cc(Cl)ccc1O	7.94 µM [falling, partial curve]
CC1CC(=O)c2cnc(NCC3CCCO3)nc2C1 (configuration not stated)	0.00316 µM [falling, full curve, poor fit]
Cc1noc(C)c1COc1ccc(C(=O)OC(C)C(=O)Nc2ccc(N3CCOCC3)cc2)cc1 (configuration not stated)	3.98 µM [falling, partial curve]
COC(=O)c1sc2cnccc2c1N	15.8 µM [rising, single point]
Cc1occc1C(=O)NC(C)CCc1ccccc1 (configuration not stated)	1 µM [rising, single point]
COc1cc(CN2CCC(C(=O)N3CCN(c4ccccc4F)CC3)CC2)ccc1O	5.01 µM [falling, single point]

Compound	AC50
CC(=O)Nc1ccc(S(=O)(=O)N2CCN(C(=O)CCC3CCCC3)CC2)cc1	1.26 µM [rising, partial curve]
COc1ccc(-c2csc(Cc3nnc(N4CCOCC4)n3-c3ccccc3)n2)cc1	10 µM [rising, partial curve]
CCCc1cc(-c2[nH]ncc2-c2ccc(C(=O)OCC)o2)c(O)cc1O	5.01 µM [falling, partial curve]
Cn1c(=O)c2c(nc(NCCCN3CCOCC3)n2Cc2ccc(Cl)cc2)n(C)c1=O	12.6 µM [rising, single point]
COc1ccc(Cc2nc(-c3cccs3)no2)cc1OC	3.16 µM [rising, full curve]
COCc1nc(-c2ccc(-c3ccc(OC)cc3)nc2OC)no1	3.98 µM [rising, full curve]
COC(=O)[C@@]1(Cc2ccc(F)cc2)[C@H]2c3cc(C(=O)N4CCCC4)n(Cc4cc(C)n(C)n4)c3C[C@H]2CN1C(=O)c1ccccc1	12.6 µM [rising, single point]
CCCCNC(=O)c1ccc(NC(=O)C2CCCO2)cc1 (configuration not stated)	0.0398 µM [falling, full curve, poor fit]
CC1(C)Cc2c(sc3c2c(=N)n(Cc2ccco2)c(=O)n3CC(=O)Nc2ccccc2)CO1	7.94 µM [rising, partial curve, poor fit]
O=C(NCc1ccco1)c1ccc2c(=O)n(CCC3=CCCCC3)c(=O)[nH]c2c1	25.1 µM [falling, single point]
Cn1c(=O)c2c(SCc3ccccc3)nc(-c3ccco3)nc2n(C)c1=O	12.6 µM [rising, single point]
Cc1ccc(C(c2sc3ncnn3c2O)N2CC(C)CC(C)C2)cc1 (configuration not stated)	7.94 µM [falling, partial curve]
CC(C)n1c(NCc2cccs2)nc2ccccc21	0.0501 µM [falling, full curve, poor fit]
CC(C)(C)C(=O)Oc1cc(N)n(S(=O)(=O)c2ccccc2)n1	10 µM [falling, partial curve]
O=c1oc2ccccc2n1CCCCCn1c(=O)oc2ccccc21	20 µM [rising, single point]
CCCn1c(NC(=O)C2COc3ccccc3O2)nc2ccccc21 (configuration not stated)	3.16 µM [rising, single point]
N#Cc1nc(-c2ccc(OCc3ccccc3)cc2)oc1NCCCN1CCOCC1	2 µM [rising, partial curve]
CC1(c2ccc(Cl)cc2)NC(=O)N(CC(=O)N2CCCC2)C1=O (configuration not stated)	3.16 µM [falling, single point]
Cc1cc(Nc2nc3ccccc3[nH]c2=O)n(-c2ccccc2)n1	6.31 µM [rising, partial curve]
CCc1c(C)nc2ncnn2c1N1CCCC(C(=O)NCCc2ccc(OC)cc2)C1 (configuration not stated)	10 µM [rising, partial curve]
Nc1ncnc2c([C@@H]3O[C@@H](CO)[C@H](O)[C@@H]3O)nsc12	0.501 µM [falling, single point]
Cn1c2c(c(=O)n(C)c1=O)CN(Cc1ccc(F)cc1)CN2	0.398 µM [falling, partial curve, poor fit]
COc1ccccc1CNc1cc(-c2cccc(NS(C)(=O)=O)c2)ncn1	10 µM [rising, single point]

Arranged by formula weight (falling): some entries from above.
Compound	AC50
COc1ccc(-c2csc(Cc3nnc(N4CCOCC4)n3-c3ccccc3)n2)cc1	10 µM [rising, partial curve]
O=C(NCc1ccco1)c1ccc2c(=O)n(CCC3=CCCCC3)c(=O)[nH]c2c1	25.1 µM [falling, single point]
Cn1c(=O)c2c(SCc3ccccc3)nc(-c3ccco3)nc2n(C)c1=O	12.6 µM [rising, single point]

Carrying on.

Compound	AC50
O=c1[nH]c(C2CCCN(S(=O)(=O)c3ccccc3)C2)nc2c1nnn2Cc1ccccc1F (configuration not stated)	10 µM [rising, partial curve]
Cc1c(C(=O)OCC2CCCO2)[nH]c2c1C(=O)CC(c1ccco1)C2 (configuration not stated)	10 µM [falling, partial curve]
CCN1CCCC1Cn1cnc2c([nH]c3cccc(Cl)c32)c1=O (configuration not stated)	12.6 µM [falling, partial curve]
COC(=O)c1c(-c2ccc(OC)c(OC)c2)csc1N	10 µM [rising, partial curve]
Nc1ccccc1N	12.6 µM [rising, full curve, poor fit]
Cc1ccc2[nH]c(-c3ccccc3)cc(=O)c2c1	0.631 µM [rising, partial curve]
Cc1nc(=O)c(-c2ccccc2)c(C)n1CC1CCCO1 (configuration not stated)	0.01 µM [falling, full curve]
Oc1ccc(Br)cc1CN1CCCCCCC1	1 µM [falling, partial curve]
COC(=O)C1=C(C)N=c2s/c(=C/c3ccoc3)c(=O)n2C1c1ccccc1 (configuration not stated)	0.316 µM [rising, partial curve, poor fit]
CCCCC(CC)CNC(=O)c1cccs1 (configuration not stated)	0.126 µM [rising, full curve, poor fit]
CCCCC1CCC(c2nc(-c3ccccn3)no2)CC1 (configuration not stated)	25.1 µM [rising, single point]
c1ccn(-c2ncnc3sc4c(c23)CCCC4)c1	10 µM [rising, partial curve]
COC(=O)[C@@]1(Cc2ccc(OC)cc2)[C@H]2c3cc(C(=O)N(C)C)n(Cc4ccsc4Br)c3C[C@H]2CN1C(=O)c1ccccc1	10 µM [rising, partial curve]
Cc1cc(N2CCCCC2)n2nc(C)c(-c3ccccc3)c2n1	12.6 µM [rising, partial curve]
CC(C)CN(Cc1cc2ccccc2[nH]c1=O)C(=O)c1cccnc1	5.01 µM [falling, single point]
O=C(COC(=O)c1cccs1)Nc1ccccc1	0.0316 µM [falling, full curve, poor fit]
CCn1c(C)nc2cc(-c3nc4n(n3)Cc3ccccc3-4)ccc21	2.51 µM [rising, full curve]
CC1=CC(=O)c2ccccc2C1=O	12.6 µM [falling, partial curve, poor fit]
CCCCCOC(=O)c1[nH]c2c(c1C)C(=O)CC(c1ccco1)C2 (configuration not stated)	0.0316 µM [rising, full curve]
COc1cc(C2C(C#N)=C(N)OC3=C2C(=O)CC(C)(C)C3)ccc1OC(=O)N1CCOCC1 (configuration not stated)	5.01 µM [falling, single point]
Fc1ccc(CSc2ncnc3c2oc2ccccc23)cc1	1.58 µM [rising, partial curve]
